Binding data for three molecules are collected here from US20090131309A1, “ICA512 COUPLES INSULIN SECRETION AND GENE EXPRESSION IN BETA-CELLS” (Technische Universität Dresden Medizinizche Fakultät Carl …, priority 2004, published 2009).

By UniProt entry, the sequences of proteins in these tests, tags left out.
UniProt P52632: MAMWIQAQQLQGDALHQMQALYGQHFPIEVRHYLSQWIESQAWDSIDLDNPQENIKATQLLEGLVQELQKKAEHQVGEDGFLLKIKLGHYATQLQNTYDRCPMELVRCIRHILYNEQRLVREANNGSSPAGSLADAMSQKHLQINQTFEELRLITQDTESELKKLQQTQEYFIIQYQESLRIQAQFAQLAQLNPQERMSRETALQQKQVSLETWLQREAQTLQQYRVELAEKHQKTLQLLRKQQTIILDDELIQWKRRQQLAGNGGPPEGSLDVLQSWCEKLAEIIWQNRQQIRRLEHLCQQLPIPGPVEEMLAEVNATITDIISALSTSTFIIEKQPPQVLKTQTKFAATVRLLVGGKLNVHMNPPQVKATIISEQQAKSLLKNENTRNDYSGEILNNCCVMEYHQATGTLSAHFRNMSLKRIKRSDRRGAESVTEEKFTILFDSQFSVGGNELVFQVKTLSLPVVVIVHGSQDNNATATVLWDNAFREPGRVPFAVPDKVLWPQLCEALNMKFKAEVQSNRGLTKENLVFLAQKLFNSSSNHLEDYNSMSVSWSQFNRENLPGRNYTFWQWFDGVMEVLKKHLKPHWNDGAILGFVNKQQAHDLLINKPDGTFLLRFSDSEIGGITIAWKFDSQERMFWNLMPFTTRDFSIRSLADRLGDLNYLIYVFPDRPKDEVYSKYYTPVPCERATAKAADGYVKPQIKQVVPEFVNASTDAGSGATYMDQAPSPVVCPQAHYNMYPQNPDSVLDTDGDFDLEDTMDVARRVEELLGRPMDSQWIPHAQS

One experiment deals with T1, ICA512-CCF-GFP (human) (UniProt Q16849).
T1 sequence: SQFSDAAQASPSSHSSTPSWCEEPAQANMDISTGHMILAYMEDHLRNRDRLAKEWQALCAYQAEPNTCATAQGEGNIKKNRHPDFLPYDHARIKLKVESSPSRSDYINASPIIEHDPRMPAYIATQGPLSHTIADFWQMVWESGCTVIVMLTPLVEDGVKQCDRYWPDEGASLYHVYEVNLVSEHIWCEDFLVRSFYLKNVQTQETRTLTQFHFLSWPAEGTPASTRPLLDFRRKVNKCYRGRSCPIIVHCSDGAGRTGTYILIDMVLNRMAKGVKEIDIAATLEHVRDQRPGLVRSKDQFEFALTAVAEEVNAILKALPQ
In words: anti-GFP immunoprecipitation from total extracts of hGH-stimulated INS-1 cells, immunoblot (FIG. 24f).

The target of experiment [1] is T2, GST-ICA512 (700-979) (human) (UniProt Q16849).
T2 sequence: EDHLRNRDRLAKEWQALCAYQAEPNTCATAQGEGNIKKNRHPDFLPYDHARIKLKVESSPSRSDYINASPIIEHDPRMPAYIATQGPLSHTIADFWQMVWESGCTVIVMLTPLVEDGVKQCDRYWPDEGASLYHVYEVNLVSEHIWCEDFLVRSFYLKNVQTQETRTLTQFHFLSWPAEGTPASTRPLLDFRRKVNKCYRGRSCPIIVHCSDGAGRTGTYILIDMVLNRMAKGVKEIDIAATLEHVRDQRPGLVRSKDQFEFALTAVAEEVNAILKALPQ
Briefly: GST pull-down, SDS-PAGE and autoradiography (FIG. 26a).

In a further experiment the target is PY-STAT5 (rat) (UniProt P52632). In words: heading of the legend of FIG. 24 (co-immunoprecipitation).

Results are given in words; binding and its absence hold for the method and conditions named. For part of these data: In cells and extracts the contact can be indirect. Some entries that bind do so weakly or less than the wild type. Sequences can lack the tags named with a protein.

In the case of PY-STAT5 (from UniProt P52632 1-786), the binding result with ICA512-CCF-GFP (human) is “binds”.

B1: in-vitro transcribed and translated [^35S]-labeled PIASy (protein, mouse, UniProt Q9JM05 1-507, looked up)
chain: MAAELVEAKNMVMSFRVSDLQMLLGFVGRSKSGLKHELVTRALQLVQFDCSPELFKKIKELYETRYAKKSAEPGPQAPRPLDPLALHSMPRTPLSGPTVDYPVLYGKYLNGLGRLPTKTLKPEVRLVKLPFFNMLDELLKPTELVPQSAEKLQESPCIFALTPRQVEMIRNSRELQPGVKAVQVVLRICYSDTSCPQEDQYPPNIAVKVNHSYCSVPGYYPSNKPGVEPKRPCRPINLTHLMYLSSATNRITVTWGNYGKSYSVALYLVRQLTSSDLLQRLKTIGVKHPELCKALVKEKLRLDPDSEIATTGVRVSLICPLVKMRLSVPCRAETCAHLQCFDAVFYLQMNEKKPTWMCPVCDKPAAYDQLIIDGLLSKILSECEGADEIEFLAEGSWRPIRAEKEPSCSPQGPILVLGTSDANGLAPASSTPGIGSGLSGPGSAGSGAGAAGSLENGKTGADVVDLTLDSSSSSEDEDEDEDDDEDEDEGPRPKRRCPFQKGLVPAC
modifications: [35S]-methionine label
Regarding B1, the binding result in experiment [1] was “binds”.

B2: ICA512-CCF-GFP (other, not shown: large carriers)
chain: SQFSDAAQASPSSHSSTPSWCEEPAQANMDISTGHMILAYMEDHLRNRDRLAKEWQALCAYQAEPNTCATAQGEGNIKKNRHPDFLPYDHARIKLKVESSPSRSDYINASPIIEHDPRMPAYIATQGPLSHTIADFWQMVWESGCTVIVMLTPLVEDGVKQCDRYWPDEGASLYHVYEVNLVSEHIWCEDFLVRSFYLKNVQTQETRTLTQFHFLSWPAEGTPASTRPLLDFRRKVNKCYRGRSCPIIVHCSDGAGRTGTYILIDMVLNRMAKGVKEIDIAATLEHVRDQRPGLVRSKDQFEFALTAVAEEVNAILKALPQ
B2: in the experiment with PY-STAT5 (rat), the binding result is on record as “binds”.
